Source: article doi:10.1101/2020.09.22.309260
No constants are given. Whether binding was seen depends on the method and setting. Binding seen in cells or lysates may run through a third protein. Binding can be weak; no strength is given.

Target: FvFlbA1-NLuc (Fusarium verticillioides) (UniProt W7MNW1)
Assay: split reporter

Row | Substance | binding
1 | FvTlg2 (CLuc fusion) (from UniProt W7M6E7) | binds weakly
2 | FvRab7 (CLuc fusion) (from UniProt W7MEQ4) | binds
3 | CLuc-FvFlbA2 (from UniProt W7MCR6) | binds
4 | FvRab5 (CLuc fusion) (from UniProt W7LVC9) | binds
5 | FvPep12 (CLuc fusion) (from UniProt W7MPJ7) | binds weakly
6 | FvVps36 (CLuc fusion) (from UniProt W7M1I4) | binds weakly
